Assay results reported in PubChem BioAssay AID906 (National Center for Advancing Translational Sciences (NCATS), 2007).
The inconclusive results got no clear call from the source; some entries with a clear call stand among them for comparison. A potency beside an inconclusive call is a rough fit, not a confirmed value. Calls of active or inactive are those of the source. Calls come from the whole dose curve; as a rule, active = well fitted inhibition curve with a large enough effect; inconclusive = small, poorly fitted or top-dose-only effect, or another doubt; inactive = no such curve, though single readings can be large or run the other way.

Assay: Cell Viability - CRE-beta lactamase CHO cell - 40 hr assay
Conditions: CRE-bla CHO viability, ATP luminescence; max response: active compounds read low
Description: NIH Chemical Genomics Center [NCGC] NIH Molecular Libraries Screening Centers Network [MLSCN] National Institutes of Environmental Health Sciences [NIEHS] National Toxicology Program [NTP] MLSCN Grant: 1X01MH079867-01 Assay Provider: Marshall W. Nirenberg, U.S. National Heart, Lung and Blood Institute NCGC Assay Overview: We have developed a 1536-well cell-based assay for quantitative high throughput screening (qHTS) against a number of cell lines to determine in vitro cytotoxicity of small molecules. This particular assay uses CRE-bla CHO cell line from Invitrogen.
NCGC Assay Protocol Summary: The CellTiter-Glo luminescent cell viability assay (Promega) is a homogeneous method to measure the number of viable cells in culture. The end point readout of this assay is based on quantitation of intracellular ATP, an indicator of metabolic activity, using the luciferase reaction. Luciferase catalyzes the oxidation of beetle Luciferin to oxyluciferin and light in the presence of ATP. The luminescent signal is proportional to amount of ATP present. Using the CellTiter-Glo luminescent cell viability assay, the amount of cellular ATP was measured in the CRE-bla CHO cell line with complete culture medium following compound treatment for 40 hours. The assay was performed in opaque white Kalypsys 1536-well plates. In the screen, tamoxifen was used as positive control. The selected compounds were measured for their ability to cause acute toxicity in the cell line, as reflected by a decrease in intracellular ATP levels, in a concentration-dependent manner. Data were normalized to the controls for basal activity (DMSO only) and 100% inhibition (100 uM tamoxifen). AC50 values were determined from concentration-response data modeled with the standard Hill equation. NCGC Assay Protocol Summary 1. Reagent; 5 uL; 2000 CHO cells/well 2. Time; overnight; 37 °C incubation 3. Compounds; 23 nL; 5.9 nM to 46 uM 4. Controls; 23 nL; Tamoxifen 4.5 nM to 92 uM 5. Time; 40 hr; 37 °C incubation 6. Reagent; 5 uL; CellTiter Glo reagent 7. Time; 20 min; Room Temperature 8. Detection; Luminescence; Viewlux plate reader Keywords: cell viability, cytotoxicity, CHO cell line, luminescence, MLSMR, MLSCN, NIH Roadmap, qHTS, NCGC

Structure (SMILES) | Potency | max response
Nc1nc2ccc(Cl)cc2c2nc(-c3ccco3)nn12 | inconclusive: 7.94 µM [inhibitor, full curve] | 
CC(C)C(=O)N1CCN(CCN=Cc2c(O)n(C)c(=O)n(C)c2=O)CC1 |  | inactive: -4%
COc1ccc(Cc2nccc3cc(OC)c(OC)cc23)cc1OC | inconclusive: 7.94 µM [inhibitor, full curve] | 
CN(C)C=C1C(=O)N(C2CCCCC2)C(=O)N(C2CCCCC2)C1=O |  | inconclusive: -42.8% [inhibitor]
